We go through 3 molecules from PMC10551643.

Chains of the proteins cited; added tags and fusions are not shown.
UniProt P35222: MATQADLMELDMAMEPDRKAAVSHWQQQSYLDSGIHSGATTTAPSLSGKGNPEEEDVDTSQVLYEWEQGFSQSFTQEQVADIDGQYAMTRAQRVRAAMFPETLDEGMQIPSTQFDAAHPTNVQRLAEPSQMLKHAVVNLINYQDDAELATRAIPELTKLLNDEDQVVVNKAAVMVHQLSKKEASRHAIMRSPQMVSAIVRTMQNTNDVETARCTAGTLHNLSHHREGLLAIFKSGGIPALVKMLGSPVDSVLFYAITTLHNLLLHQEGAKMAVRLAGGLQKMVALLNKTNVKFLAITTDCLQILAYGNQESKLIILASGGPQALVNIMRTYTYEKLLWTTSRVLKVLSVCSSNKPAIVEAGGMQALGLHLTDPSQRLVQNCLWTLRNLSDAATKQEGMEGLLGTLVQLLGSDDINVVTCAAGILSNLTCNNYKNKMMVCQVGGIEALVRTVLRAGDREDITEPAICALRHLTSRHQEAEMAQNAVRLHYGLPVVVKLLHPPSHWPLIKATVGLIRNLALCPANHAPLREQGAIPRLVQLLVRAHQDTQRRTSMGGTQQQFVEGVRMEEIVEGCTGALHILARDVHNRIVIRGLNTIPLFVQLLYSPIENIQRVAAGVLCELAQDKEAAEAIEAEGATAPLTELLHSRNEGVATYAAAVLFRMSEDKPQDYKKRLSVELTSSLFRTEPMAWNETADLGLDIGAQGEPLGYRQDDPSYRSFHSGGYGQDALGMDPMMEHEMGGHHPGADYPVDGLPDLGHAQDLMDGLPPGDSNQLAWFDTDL
UniProt P46937: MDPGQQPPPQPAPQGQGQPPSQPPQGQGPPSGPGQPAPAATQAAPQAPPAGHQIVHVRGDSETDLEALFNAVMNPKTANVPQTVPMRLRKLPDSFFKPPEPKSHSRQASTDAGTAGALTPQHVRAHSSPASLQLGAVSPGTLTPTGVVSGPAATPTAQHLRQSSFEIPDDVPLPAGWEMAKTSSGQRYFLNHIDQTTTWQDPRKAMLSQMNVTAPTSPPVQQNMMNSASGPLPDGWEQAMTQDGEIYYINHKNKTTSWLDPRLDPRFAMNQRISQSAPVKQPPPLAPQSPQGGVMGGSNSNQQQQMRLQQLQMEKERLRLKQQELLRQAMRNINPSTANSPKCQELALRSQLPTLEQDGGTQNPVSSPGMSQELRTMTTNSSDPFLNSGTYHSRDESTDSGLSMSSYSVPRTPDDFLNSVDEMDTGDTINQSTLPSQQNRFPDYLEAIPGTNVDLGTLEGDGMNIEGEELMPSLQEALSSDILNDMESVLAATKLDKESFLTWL

Results are given in words; binding and its absence hold for the method and conditions named. Binding seen in cells or lysates may run through a third protein. Some binding calls cover weakened binding; strength is not graded here.

Experiment [1] addresses T1, MUC13 (endogenous) (human (endogenous in SW620, HT29, HCT116, HPAF-II, SW480)) (UniProt Q9H3R2).
T1 sequence: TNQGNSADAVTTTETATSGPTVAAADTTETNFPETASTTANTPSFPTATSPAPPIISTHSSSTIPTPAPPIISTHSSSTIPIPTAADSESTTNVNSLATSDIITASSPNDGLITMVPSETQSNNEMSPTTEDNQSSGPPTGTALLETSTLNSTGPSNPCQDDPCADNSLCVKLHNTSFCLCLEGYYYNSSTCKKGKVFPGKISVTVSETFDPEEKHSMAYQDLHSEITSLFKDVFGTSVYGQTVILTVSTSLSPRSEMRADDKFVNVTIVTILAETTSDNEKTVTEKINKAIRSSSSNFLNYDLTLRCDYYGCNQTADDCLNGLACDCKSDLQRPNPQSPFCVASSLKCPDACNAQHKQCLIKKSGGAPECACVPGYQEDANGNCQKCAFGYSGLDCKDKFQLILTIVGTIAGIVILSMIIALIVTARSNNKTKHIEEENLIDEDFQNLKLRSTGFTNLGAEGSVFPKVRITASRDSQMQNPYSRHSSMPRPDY
In words: co-IP; reverse co-IP: immunoprecipitation with anti-MUC13 antibody, YAP1 detected; SW620 cells.

The target in experiment [2] is β-catenin (endogenous) (human (endogenous in SW480, SW620)) (UniProt P35222). In words: proximity ligation; Duolink in situ PLA on cryosections of cryofixed cells 36 h after anoikis induction; mouse and rabbit primary antibody pairs; SW480+Vec, SW480+MUC13, SW620+shCtrl, SW620+shMUC13 (MUC13 knockdown).
The target in experiment [3] is YAP1 (endogenous) (human (endogenous in SW620, HT29, HCT116, HPAF-II, SW480)) (UniProt P46937). Described as above.
For experiment [4] the target is unchanged. In words: co-IP; immunoprecipitation with anti-YAP1 antibody, immunoblot for MUC13; SW620, HT29, HCT116 and HPAF-II cells. For orientation: Immunoblotting shows a protein as a band on a membrane.

With “YAP1 (endogenous) (from UniProt P46937 1-504)”, in experiment [1], the binding entry is given as “binds”.

B1: MUC13 (ectopic, lentiviral expression in SW480 cells) (protein, UniProt Q9H3R2 19-512)
chain: T1 sequence
Take B1: the binding entry in experiment [2] and in experiment [3] was “binds” each time.

B2: MUC13 (endogenous) (protein, UniProt Q9H3R2 19-512)
chain: T1 sequence
B2: the binding result in experiment [3] and in experiment [4] was “binds” in each case.
